Reference: PubChem BioAssay AID248 (DTP/NCI, 2004)
The list does not hold the whole screen: its compounds were picked by chemical class. Other doses and runs of a compound may be missing. T/C is the treated group as % of the vehicle group. Where survival is the endpoint, this PubChem deposit counts one and a half times the control or more as active, and values a quarter to a half above the control carry no call in these data; other NCI protocols may use other cut-offs. Some T/C values are marked as having no survivor count here; that says nothing about deaths at the dose. Schedule codes are those of the source, taken here to give the interval after Q, in days (D) or hours (H), and the number of doses after X. Some doses were run more than once; the values are given in rising order. Some schedule codes hold Z or #, which are not explained here.

Test system: L1210 leukemia ip in BDF1 mice, survival T/C
Experiment: NCI In Vivo Anticancer Drug Screen. Data for tumor model L1210 Leukemia (intraperitoneal) in B6D2F1 (BDF1) mice
Conditions: T/C endpoint: mean survival time, higher T/C = longer survival
[1] = dose: 100.0 mg/kg/injection, schedule: Q04DX003 (ip), vehicle: saline
[2] = dose: 200.0 mg/kg/injection, schedule: Q04DX003 (ip), vehicle: saline
[3] = dose: 400.0 mg/kg/injection, schedule: Q04DX003 (ip), vehicle: saline
[4] = dose: 25.0 mg/kg/injection, schedule: Q04DX003 (ip), vehicle: saline

Question: With NS(=O)(=O)c1ccc(N(CCBr)CCBr)cc1 as the compound, how does the T/C (dose: 101.5 mg/kg/injection, schedule: Q01DX005 (ip), vehicle: carboxymethylcellulose (CMC)) read?
Answer: 121 % of control [survivor count not shown]

Question: And the T/C (dose: 203.0 mg/kg/injection, schedule: Q01DX005 (ip), vehicle: carboxymethylcellulose (CMC))?
Answer: 129 % of control [survivor count not shown]

Question: For O=c1cc(CN(CCCl)CCCl)[nH]c(=O)[nH]1, which T/C [1] is on record?
Answer: 95 % of control [survivor count not shown]

Question: What about the T/C [2] of the same compound?
Answer: 95 % of control [survivor count not shown]

Question: What about the T/C [3] of the same compound?
Answer: 98 % of control [survivor count not shown]

Question: For O=C(O)C1CCC(N(CCCl)CCCl)CC1 (centres undefined), which T/C (dose: 3.0 mg/kg/injection, schedule: Q01DX001 (ip), vehicle: saline) is on record?
Answer: 128 % of control [survivor count not shown]

Question: What about the T/C (dose: 4.4 mg/kg/injection, schedule: Q01DX001 (ip), vehicle: saline) of the same compound?
Answer: 150 % of control [survivor count not shown]

Question: And the T/C (dose: 6.7 mg/kg/injection, schedule: Q01DX001 (ip), vehicle: saline)?
Answer: 136 % of control [survivor count not shown]

Question: How did the T/C (dose: 5.0 mg/kg/injection, schedule: Q01DX Z (ip), vehicle: water) turn out when NC1CCCCC1.O=P(O)(NC1CCCCC1)N(CCCl)CCCl was run?
Answer: 102 % of control [survivor count not shown]

Question: What about the T/C (dose: 10.0 mg/kg/injection, schedule: Q01DX Z (ip), vehicle: water) of the same compound?
Answer: 101 % of control [survivor count not shown]

Question: What about the T/C (dose: 20.0 mg/kg/injection, schedule: Q01DX Z (ip), vehicle: water) of the same compound?
Answer: 101 % of control [survivor count not shown]

Question: And the T/C (dose: 40.0 mg/kg/injection, schedule: Q01DX013 (ip), vehicle: water)?
Answer: 137 % of control [survivor count not shown]

Question: And the T/C (dose: 80.0 mg/kg/injection, schedule: Q01DX013 (ip), vehicle: water)?
Answer: 135 % of control [survivor count not shown]

Question: Which T/C (dose: 12.0 mg/kg/injection, schedule: Q01DX015 (ip), vehicle: saline) does the source give for Cc1ccc(CN(CCCl)CCCl)cc1C here?
Answer: 112 % of control [survivor count not shown]

Question: And the T/C (dose: 18.0 mg/kg/injection, schedule: Q01DX015 (ip), vehicle: saline)?
Answer: 93 % of control [survivor count not shown]

Question: What does the source list for ClCCN(CCCl)c1ccc(Oc2ccccc2)cc1?
Answer: T/C (dose: 100.0 mg/kg/injection, schedule: Q01DX001 (ip), vehicle: acetone): 98 % of control [survivor count not shown]; T/C (dose: 100.0 mg/kg/injection, schedule: Q01DX009 (ip), vehicle: saline): 120 % of control [survivor count not shown]; T/C (dose: 100.0 mg/kg/injection, schedule: Q01DX Z (ip), vehicle: carboxymethylcellulose (CMC)): 107 % of control [survivor count not shown]; T/C [1]: 105 % of control [survivor count not shown]; T/C (dose: 200.0 mg/kg/injection, schedule: Q01DX001 (ip), vehicle: acetone): 92 % of control [survivor count not shown]; T/C (dose: 200.0 mg/kg/injection, schedule: Q01DX009 (ip), vehicle: saline): 111 % of control [survivor count not shown]; T/C (dose: 200.0 mg/kg/injection, schedule: Q01DX Z (ip), vehicle: carboxymethylcellulose (CMC)): 98 % of control [survivor count not shown]; T/C [2]: 106 % of control [survivor count not shown]; T/C (dose: 400.0 mg/kg/injection, schedule: Q01DX001 (ip), vehicle: acetone): 93 % of control [survivor count not shown]; T/C (dose: 400.0 mg/kg/injection, schedule: Q01DX009 (ip), vehicle: saline): 118 % of control [survivor count not shown]; T/C (dose: 400.0 mg/kg/injection, schedule: Q01DX Z (ip), vehicle: carboxymethylcellulose (CMC)): 98 % of control [survivor count not shown]; T/C [3]: 106 % of control [survivor count not shown]; T/C (dose: 800.0 mg/kg/injection, schedule: Q01DX Z (ip), vehicle: carboxymethylcellulose (CMC)): 108 % of control [survivor count not shown]

Question: Which T/C (dose: 2.2 mg/kg/injection, schedule: Q01DX001 (ip), vehicle: saline) does the source give for CCC(C)(O)C#CCN(CCCl)CCCl (centres undefined) here?
Answer: 109 % of control [survivor count not shown]

Question: And the T/C (dose: 5.0 mg/kg/injection, schedule: Q01DX009 (ip), vehicle: saline)?
Answer: 119 % of control [survivor count not shown]

Question: What about the T/C (dose: 5.5 mg/kg/injection, schedule: Q01DX001 (ip), vehicle: saline) of the same compound?
Answer: 115 % of control [survivor count not shown]

Question: What about the T/C (dose: 6.25 mg/kg/injection, schedule: Q01DX001 (ip), vehicle: saline) of the same compound?
Answer: 117 % of control [survivor count not shown]

Question: And the T/C (dose: 6.25 mg/kg/injection, schedule: Q01DX009 (ip), vehicle: saline)?
Answer: 105 % of control [survivor count not shown]

Question: What about the T/C (dose: 7.5 mg/kg/injection, schedule: Q01DX009 (ip), vehicle: saline) of the same compound?
Answer: 130 % of control [survivor count not shown]

Question: And the T/C (dose: 11.0 mg/kg/injection, schedule: Q01DX001 (ip), vehicle: saline)?
Answer: 113 [survivor count not shown], 124 [survivor count not shown], 136 % of control [survivor count not shown]

Question: What about the T/C (dose: 11.0 mg/kg/injection, schedule: Q01DX009 (ip), vehicle: saline) of the same compound?
Answer: 131 % of control [survivor count not shown]

Question: And the T/C (dose: 12.5 mg/kg/injection, schedule: Q01DX001 (ip), vehicle: saline)?
Answer: 111 % of control [survivor count not shown]

Question: And the T/C (dose: 12.5 mg/kg/injection, schedule: Q01DX009 (ip), vehicle: saline)?
Answer: 103 % of control [survivor count not shown]

Question: And the T/C (dose: 16.5 mg/kg/injection, schedule: Q01DX009 (ip), vehicle: saline)?
Answer: 98 % of control [survivor count not shown]

Question: What about the T/C (dose: 16.6 mg/kg/injection, schedule: Q01DX001 (ip), vehicle: saline) of the same compound?
Answer: 120 [survivor count not shown] and 138 % of control [survivor count not shown]

Question: What about the T/C (dose: 25.0 mg/kg/injection, schedule: Q01DX001 (ip), vehicle: saline) of the same compound?
Answer: 111 [survivor count not shown], 117 [survivor count not shown], 135 % of control [survivor count not shown]

Question: And the T/C (dose: 37.5 mg/kg/injection, schedule: Q01DX001 (ip), vehicle: saline)?
Answer: 87 [survivor count not shown] and 129 % of control [survivor count not shown]

Question: CCC1(CC)NC(=O)N(CCN(CCCl)CCCl)C1=O was tested. Which T/C (dose: 2.0 mg/kg/injection, schedule: Q04DX003 (ip), vehicle: saline with Tween-80) did it give?
Answer: 104 % of control [survivor count not shown]

Question: What about the T/C (dose: 4.0 mg/kg/injection, schedule: Q01DX009 (ip), vehicle: saline) of the same compound?
Answer: 124 % of control [survivor count not shown]

Question: What about the T/C (dose: 4.0 mg/kg/injection, schedule: Q04DX003 (ip), vehicle: saline with Tween-80) of the same compound?
Answer: 112 % of control [survivor count not shown]

Question: What about the T/C (dose: 5.2 mg/kg/injection, schedule: Q01DX009 (ip), vehicle: saline) of the same compound?
Answer: 112 [survivor count not shown] and 123 % of control [survivor count not shown]

Question: And the T/C (dose: 8.0 mg/kg/injection, schedule: Q01DX009 (ip), vehicle: saline)?
Answer: 118 [survivor count not shown], 132 [survivor count not shown], 140 % of control [survivor count not shown]

Question: And the T/C (dose: 8.0 mg/kg/injection, schedule: Q04DX003 (ip), vehicle: saline with Tween-80)?
Answer: 126 % of control [survivor count not shown]

Question: What about the T/C (dose: 12.0 mg/kg/injection, schedule: Q01DX009 (ip), vehicle: saline) of the same compound?
Answer: 101 [survivor count not shown] and 112 % of control [survivor count not shown]

Question: And the T/C (dose: 16.0 mg/kg/injection, schedule: Q01DX009 (ip), vehicle: saline)?
Answer: 87 % of control [survivor count not shown]

Question: And the T/C (dose: 16.0 mg/kg/injection, schedule: Q04DX003 (ip), vehicle: saline)?
Answer: 124 % of control [survivor count not shown]

Question: What about the T/C [4] of the same compound?
Answer: 141 % of control [survivor count not shown]

Question: What does the source list for COc1cc(CN(CCCl)CCBr)cc(OC)c1?
Answer: T/C (dose: 3.12 mg/kg/injection, schedule: Q01DX009 (ip), vehicle: Klucel (hydroxypropylcellulose) (HPC)): 113 % of control [survivor count not shown]; T/C (dose: 6.25 mg/kg/injection, schedule: Q01DX009 (ip), vehicle: Klucel (hydroxypropylcellulose) (HPC)): 97 % of control [survivor count not shown]

Question: With O=[N+]([O-])c1ccc(O)c(CN(CCCl)CCCl)c1 as the compound, how does the T/C (dose: 12.5 mg/kg/injection, schedule: Q04DX003 (ip), vehicle: saline) read?
Answer: 105 % of control [survivor count not shown]

Question: And the T/C [4]?
Answer: 107 % of control [survivor count not shown]

Question: And the T/C (dose: 50.0 mg/kg/injection, schedule: Q04DX003 (ip), vehicle: saline)?
Answer: 96 % of control [survivor count not shown]

Question: What about the T/C [1] of the same compound?
Answer: 87 [survivor count not shown] and 107 % of control [survivor count not shown]

Question: What about the T/C [2] of the same compound?
Answer: 97 % of control [survivor count not shown]
